{
  "source": "PubChem BioAssay AID540256",
  "about": "(National Center for Advancing Translational Sciences (NCATS), 2011)",
  "note": "The whole screen tested about 300,000 compounds, of which about 3,700 (1.2%) were called active. The inconclusive results got no clear call from the source; some entries with a clear call stand among them for comparison. Calls follow the shape of the full dose curve; tested in HEK293 cells. Potencies beside an inconclusive call are fits to weak or partial responses and may not hold up. Potency is read from the fitted curve at half-maximal effect.",
  "data": [
    {"assay": "qHTS for Inhibitors of binding or entry into cells for Lassa Virus; also: nearly all actives have a fitted effect of over 50% in size", "settings": "Lassa virus pseudotype entry inhibition, cell reporter; series mostly up to 37.9 µM", "values": [
      {"compound": "CC1(C)Cc2c(sc3nnn(Cc4ccc(Cl)cc4)c(=O)c23)CO1", "Potency": "inconclusive: 15.8 µM [inhibitor, single point]"},
      {"compound": "COc1ccc(C2CC(c3ccc(Cl)cc3)Nc3nc(NC(=O)c4ccco4)nn32)cc1", "note": "(stereo not drawn)", "Potency": "inconclusive: 11.2 µM [inhibitor, partial curve, poor fit]"},
      {"compound": "Cc1nc(-c2ccc(NC(=O)c3cccs3)cc2)cs1", "Potency": "inconclusive: 0.126 µM [inhibitor, full curve, poor fit]"},
      {"compound": "CCc1ccc(CNC(=O)c2cnc3sc(N4CCOCC4)nn3c2=O)cc1", "Potency": "inconclusive: 2 µM [inhibitor, partial curve, poor fit]"},
      {"compound": "Cc1ccc(OCC(=O)Nc2ccc3c(c2)nc(CCN2CCC(C)CC2)n3C)cc1", "Potency": "inconclusive: 10 µM [inhibitor, partial curve, poor fit]"},
      {"compound": "CCOC(=O)C(=COC(=O)c1ccccc1)NC(=O)Cc1ccccc1", "Potency": "inactive"},
      {"compound": "O=C(CSc1ccc(-c2cccnc2)nn1)Nc1ccccc1C(F)(F)F", "Potency": "inconclusive: 1.26 µM [inhibitor, single point]"},
      {"compound": "CC(=O)/C(=C\\N(C)C)Sc1ccc(C)cc1", "Potency": "inactive"},
      {"compound": "Cc1cc(Cl)c(S(=O)(=O)NC2CCCC2)cc1OCC(=O)NC1CCCCC1", "Potency": "inconclusive: 23.1 µM [inhibitor, partial curve, poor fit]"},
      {"compound": "O=C(COC(=O)c1ccncc1)Nc1ccccc1", "Potency": "inconclusive: 15.8 µM [activator, single point]"},
      {"compound": "COc1ccc([N+](=O)[O-])cc1NC(=O)CSc1ccc2ccccc2c1", "Potency": "inactive"},
      {"compound": "Cc1ccc(CS(=O)Cc2ccc(C(=O)NCc3ccccc3)o2)cc1", "note": "(stereo not drawn)", "Potency": "inconclusive: 12.6 µM [inhibitor, partial curve, poor fit]"},
      {"compound": "O=C(Nc1ccc(-c2nc3ccccc3o2)cc1)c1ccc(N2C(=O)C3C4C=CC(C4)C3C2=O)cc1", "note": "(stereo not drawn)", "Potency": "active: 14.6 µM"},
      {"compound": "CC(C)c1nn2c(=O)cc(COC(=O)c3cccs3)nc2s1", "Potency": "inconclusive: 3.55 µM [activator, single point]"},
      {"compound": "CCSc1nsc(NC(=O)Nc2cccc(OC)c2)n1", "Potency": "inconclusive: 17.8 µM [inhibitor, partial curve, poor fit]"},
      {"compound": "O=C(NNC(=S)Nc1ccccc1)c1cccc(Br)c1", "Potency": "inconclusive: 1.83 µM [activator, full curve, poor fit]"},
      {"compound": "Cc1nc2cccnc2n1-c1cccc(C(=O)NCCN(C)C)c1", "Potency": "inactive"},
      {"compound": "Nc1ccc(Oc2cccc(Oc3ccc(N)cc3)c2)cc1", "Potency": "inconclusive: 2.24 µM [inhibitor, full curve, poor fit]"}
    ]}
  ]
}
